# Laboratory results as given in publication PMC7862700.
# By UniProt entry, the sequences of proteins in these tests, tags left out. Where a name states a change or a piece, a line headed by the entry shows the natural chain unless it says otherwise.
# UniProt O43186: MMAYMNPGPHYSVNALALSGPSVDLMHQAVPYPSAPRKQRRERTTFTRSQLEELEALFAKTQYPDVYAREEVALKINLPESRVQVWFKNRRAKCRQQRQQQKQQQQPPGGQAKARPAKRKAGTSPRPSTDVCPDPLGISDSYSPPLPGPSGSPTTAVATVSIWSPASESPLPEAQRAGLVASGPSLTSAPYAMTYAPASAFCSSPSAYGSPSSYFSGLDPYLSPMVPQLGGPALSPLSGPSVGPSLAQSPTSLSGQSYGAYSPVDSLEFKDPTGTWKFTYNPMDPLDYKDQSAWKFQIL
# The list shows a part of the results, in another mix than the full data. At the low end of the ranking the order means little.
# What was measured:
# Assay in all cases: DAPPL (digital affinity profiling via proximity ligation, sequencing)
# Conditions in all cases: 10 mM Tris-HCl pH 7.5, 50 mM NaCl, 1 mM DTT, 4% glycerol, room temperature, 30 min; GST-TFs on glutathione beads, 16-mer random dsDNA library, 0.1% …; high values mean tight binding; double strand, one strand shown; scale: fold enrichment (6-mer frequency, TF over GST control)
# FEV = biological target: T1, FEV (UniProt Q99581)
# T1 sequence: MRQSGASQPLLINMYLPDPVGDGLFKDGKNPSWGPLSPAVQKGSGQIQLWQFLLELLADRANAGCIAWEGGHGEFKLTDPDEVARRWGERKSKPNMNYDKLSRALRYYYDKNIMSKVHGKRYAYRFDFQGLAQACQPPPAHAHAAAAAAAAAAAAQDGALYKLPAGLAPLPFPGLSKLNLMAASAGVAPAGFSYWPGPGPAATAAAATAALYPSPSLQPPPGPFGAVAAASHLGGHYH
# CRX = CRX (UniProt O43186)
# ELF5 = biological target: T2, ELF5 (UniProt Q9UKW6-2)
# T2 sequence: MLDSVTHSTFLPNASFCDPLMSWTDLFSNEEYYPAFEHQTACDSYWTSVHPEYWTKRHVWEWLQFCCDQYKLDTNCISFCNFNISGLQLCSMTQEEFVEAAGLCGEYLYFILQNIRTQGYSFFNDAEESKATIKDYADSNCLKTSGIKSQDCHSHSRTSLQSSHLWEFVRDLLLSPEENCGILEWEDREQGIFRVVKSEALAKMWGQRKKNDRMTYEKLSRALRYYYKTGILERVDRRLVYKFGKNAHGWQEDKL
Sequence,binding signal (FEV),binding signal (CRX),binding signal (ELF5)
GAGTTG,0.462,0.425,0.473
GCGTGA,0.254,0.218,0.268
GCATGT,0.749,0.624,0.691
GGACCA,0.736,0.53,0.765
GAGAGG,0.49,0.439,0.489
GGTAGT,0.676,0.522,0.799
GGGTAC,0.885,0.655,0.905
AGCCGG,0.633,0.495,0.574
CGGCGC,0.633,0.454,0.574
GAACGC,0.726,0.585,0.69
CCGGGC,0.815,0.566,0.885
GAGCAA,0.744,0.642,0.697
TGGAGA,0.397,0.434,0.38
GTCGGA,0.17,0.148,0.181
GTCGTG,0.388,0.278,0.398
CAAGGC,0.91,0.75,0.819
GAGTCT,0.363,0.393,0.368
GACAAC,0.95,0.68,0.926

# Record cards, from the list above:
# AGCCGG as listed: binding signal (FEV) = 0.633; binding signal (CRX) = 0.495; binding signal (ELF5) = 0.574
# GGTAGT as listed: binding signal (FEV) = 0.676; binding signal (CRX) = 0.522; binding signal (ELF5) = 0.799

# The list goes on:

Sequence,binding signal (FEV),binding signal (CRX),binding signal (ELF5)
GGACGC,0.402,0.253,0.388
CGGGTG,0.655,0.429,0.667
CGGGCA,0.706,0.571,0.699
TCGCCA,0.907,0.857,0.946
GCTGTC,0.87,0.747,0.882
TGCCAG,0.7,0.671,0.645
TGGGTC,0.64,0.489,0.648
AAGGCG,0.638,0.687,0.679
TCAGGA,0.791,0.749,0.931
GATCAG,0.724,1.08,0.685
CGGACT,0.917,0.694,0.836
GGACGA,0.634,0.494,0.652
GAGCGC,0.608,0.459,0.523
CAAGAC,0.814,0.759,0.859
CGGGGG,0.456,0.395,0.444
TAGACC,0.972,0.84,0.799
GAGGCC,0.444,0.353,0.377
GGGGGC,0.582,0.468,0.581
